# Results deposited as PubChem BioAssay AID1508588 (Peter MacCallum Cancer Centre, 2020).
# Test: 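Knock-downs boosting vemurafenib effects on melanoma cell growth or lactate release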 (primary screen)
# Cells: human WM266.4 melanoma cells (BRAF V600 mutant)
# Reagents: siRNA pool against human genes, 40 nM
# Time to read-out: 96 h from transfection to read-out
# Challenge: vemurafenib 300 nM (about IC25), added 48 h after transfection, for 48 h; comparison arm got DMSO vehicle only
# Measurement: 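Cell gain (DAPI nuclei at end minus before drug, mean of two replicates) and medium lactate by absorbance per cell, both as ratio to non-targeting siRNA, also grouped into fold-change classes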
# Direction: cell gain with vemurafenib: higher = more cell gain than with non-targeting siRNA; lactate per cell with vemurafenib: higher = more lactate made per cell
# Hit rule: 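a knock-down counts as enhancing when its fold-change classes with vehicle and with vemurafenib, taken together, show a stronger drug effect on cell gain or lactate per cell; exact class pairs not stated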
# Calls: active = enhances vemurafenib effect; inactive = no enhancement seen
# Here is a random part of about 18,000 deposited reagents. 790 of them (4.4%) count as active. 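Calls rest on a combination of fold-change classes in drug and vehicle arms, not all shown here.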 Entries without a mark were called inactive.
target,cell gain with vemurafenib,lactate per cell with vemurafenib
H2BC10,0.2,1.84
GGNBP2,0.44,1.6
POLG,0.52,1.31
GRAMD2A,0.73,0.62
LAMA1,0.4,1.17
PREX1,0.89,0.87
HOXB6,0.43,2.09
ZNF589,0.54,0.37
EPYC,0.7,0.45
PRSS35,0.59,1.09
BEGAIN,0.92,0.88
RP1,0.45,1.72
KICS2,1.03,1.21
KATNAL1,0.43,0.52
LOC653978 (retired record),0.28,1.25
TAF1L,0.5,0.34
PTGR2,0.78,1.23
LAP3,0.53,1.01
HDAC5,0.47,0.84
NCAN,0.7,1.03
GEM,0.47,0.86
FERRY3,0.82,0.66
FNDC9,0.09,2.04
PLCH2,0.39,1.75
ADPRH,0.82,1.18
RRP8,0.23 (active),-0.06
AFG2A,0.73,0.8
RTN4,0.55,1.04
DAPK1,0.36,1.46
SUMO1,0.57,0.68
STAG3L3,0.84,0.74

The list goes on (9 carried over from the part before).
target,cell gain with vemurafenib,lactate per cell with vemurafenib
FNDC9,0.09,2.04
PLCH2,0.39,1.75
ADPRH,0.82,1.18
RRP8,0.23 (active),-0.06
AFG2A,0.73,0.8
RTN4,0.55,1.04
DAPK1,0.36,1.46
SUMO1,0.57,0.68
STAG3L3,0.84,0.74
EXD1,0.93,0.64
NSF,0.77,0.89
SON,0,2.38
A3GALT2,0.69,0.92
PNMA5,0.41,1.22
CLDN19,1.32,0.7
RANBP9,0.36,1.91
CABLES2,0.82,1.12
CDIN1,0.22,1.01
AGO2,0.88,0.93
OR56B4,-0.02,2.99
PRH2,0.67,1.62
BICRAL,0.81,0.94
CHST2,0.7,1
MIR9-1HG,0.76,1.1
PRIMPOL,0.27,0.9
IGDCC3,0.2,2.02
KCNK13,0.69,0.74
S100PBP,0.51,1.68
DBNDD1,1.08,0.62
ATXN7L2,0.41,1.63
HCFC2,0.93,1.05
MEFV,0.58,0.74
BRAT1,1.34,1.05
H2AC19,0.73,1.01
PPP3CC,0 (active),0.16
TFAP2C,0.6,1.54
OASL,0.13,1.52
ZUP1,0.87,0.3
NBN,0.83,0.68
NCALD,0.59,1.36
THAP3,0.13,0.5
GTSF1,0.95,1.12
LAMP5,0.82,0.55
LDB2,0.76,0.56
RAPGEF1,0.51,1.15
SYNGR2,0.44,0.8
SOX15,0.91,0.85
PRTN3,0.3,2.02
CSRNP1,0.11,1.29
TCN2,0.63 (active),0.28
RFC1,0.82,0.68
STX12,0.28,0.55
TM4SF4,0.61,0.86
ISCA2,0.4,2.02
PITPNM2,1,0.36
MS4A13,0.55,0.8
EHBP1,0.85,0.66
PLK2,0.66,0.95
MX2,0.24,1.62
PDZK1IP1,0.55,1.03
HECTD3,1.17,0.26
ZMAT1,0.35,1.8
